# PubChem BioAssay AID602196 | INSERM, 2012
# Assay: 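Genes whose knock-down alters cisplatin killing of lung cancer cells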
# System: human A549 lung cancer cells
# Reagents: siRNA pair against human genes
# Duration: 48 h transfection before cisplatin; time from cisplatin to read-out not stated
# Conditions: cisplatin at a dose killing half of control-siRNA cells; exact dose and duration not given
# Measured: 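Shift in cisplatin death relative to control siRNA, from -50 (all cells die) to +50 (no cells die); siRNAs harmful on their own scored 0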
# Direction: two-siRNA summed score (-2 to +2): higher = both siRNAs protect from cisplatin killing; -2 means both sensitise; mean protection from cisplatin (shift in death) and protection from cisplatin (shift in death), siRNA C and protection from cisplatin (shift in death), siRNA D: higher = protection from cisplatin killing
# Active means: 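Each siRNA scores 0 if harmful alone by LDH or WST-1, otherwise +1 if it reduces and -1 if it increases cisplatin killing; a gene is active when both siRNAs agree (sum +2 or -2)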
# Calls: active = both siRNAs shift cisplatin killing the same way; inactive = no consistent shift, or siRNA harmful alone
# The whole screen tested about 23,000 reagents; this is a random part of them. Over the whole deposit, 455 (2%) are marked active. 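Active includes both protection and sensitisation; some change values fall well beyond the stated -50 to +50 range.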 Unmarked entries are inactive. No sequences are given here. The record does not give: the amount of reagent.
Gene,two-siRNA summed score (-2 to +2),mean protection from cisplatin (shift in death) (%),"protection from cisplatin (shift in death), siRNA C (%)","protection from cisplatin (shift in death), siRNA D (%)"
CARD6 (GeneID 84674),0,11.3,-3.6,26.2
LINC02656 (GeneID 399716),0,4.3,2.8,5.8
ARL6 (GeneID 84100),0,11.2,13.3,9.1
SNX19 (GeneID 399979),0,5.1,-0.5,10.7
LOC440020,0,6.7,-0.7,14
SIK2 (GeneID 23235),-1,-2.1,-13.7,9.4
GPR156 (GeneID 165829),0,-1.4,-3.6,0.7
HSD17B12 (GeneID 51144),0,-4.4,-0.6,-8.1
LOC340913,1,3.4,-17.5,24.2
PDE4DIPP3 (GeneID 199882),0,8.2,10.1,6.4
LOC441063,0,2.7,-1,6.4
AQP4 (GeneID 361),0,-11.3,-10.5,-12.2
COQ4 (GeneID 51117),0,-1.9,-12.5,8.6
SLC19A3 (GeneID 80704),-1,-8.8,-0.4,-17.1
COG4 (GeneID 25839),0,-1.4,-8.4,5.6
NIBAN3 (GeneID 199786),1,11.7,7.9,15.5
C1S (GeneID 716),-1,-3.4,-11.6,4.8
B3GALT5-AS1 (GeneID 114041),0,1.3,1.1,1.5
PHACTR4 (GeneID 65979),0,3.5,3.4,3.6
MAP3K13 (GeneID 9175),-1,-8.4,-19.7,2.8
SLC13A3 (GeneID 64849),0,3.5,17.1,-10.1
VANGL2 (GeneID 57216),0,13.5,23.6,3.4
H1-6 (GeneID 3010),1,-4.6,-18.6,9.4
LOC392443,2 (active),26.9,36.8,16.9
CANT1 (GeneID 124583),0,7.3,13.1,1.5
WASF1 (GeneID 8936),-1,-12,-35.7,11.7
ORC5 (GeneID 5001),0,-16.2,-33,0.5
FLJ37858,0,9,16.3,1.8
NSG1 (GeneID 27065),0,-16.3,0.9,-33.5
HOXA3 (GeneID 3200),1,15.9,6.8,24.9
TNFAIP3 (GeneID 7128),0,-0.8,3.1,-4.7
CABCOCO1 (GeneID 219621),0,4.7,3,6.4
RCOR3 (GeneID 55758),0,6.4,0.2,12.6
SH3BGRL2 (GeneID 83699),0,3.2,14.5,-8.1
ZNF552 (GeneID 79818),0,-0.2,7.1,-7.6
PRR19 (GeneID 284338),1,16.7,22.6,10.7

Ordered by “protection from cisplatin (shift in death), siRNA C (%)” (descending): some entries from above.
Gene,two-siRNA summed score (-2 to +2),mean protection from cisplatin (shift in death) (%),"protection from cisplatin (shift in death), siRNA C (%)","protection from cisplatin (shift in death), siRNA D (%)"
FLJ37858,0,9,16.3,1.8
SH3BGRL2 (GeneID 83699),0,3.2,14.5,-8.1
ZNF552 (GeneID 79818),0,-0.2,7.1,-7.6
HOXA3 (GeneID 3200),1,15.9,6.8,24.9
TNFAIP3 (GeneID 7128),0,-0.8,3.1,-4.7
CABCOCO1 (GeneID 219621),0,4.7,3,6.4
NSG1 (GeneID 27065),0,-16.3,0.9,-33.5
RCOR3 (GeneID 55758),0,6.4,0.2,12.6

Next results follow:
Gene,two-siRNA summed score (-2 to +2),mean protection from cisplatin (shift in death) (%),"protection from cisplatin (shift in death), siRNA C (%)","protection from cisplatin (shift in death), siRNA D (%)"
C2CD3 (GeneID 26005),1,8.8,0.2,17.5
HNRNPA2B1 (GeneID 3181),0,-8.7,-9.2,-8.3
CSH2 (GeneID 1443),0,-3,-13.5,7.5
LINC00574 (GeneID 80069),0,2.2,5.1,-0.8
EVI5 (GeneID 7813),1,12.4,9.4,15.4
CDC23 (GeneID 8697),-1,-13.7,-7.9,-19.6
APCDD1 (GeneID 147495),0,-0.4,-7.1,6.3
DPF2 (GeneID 5977),0,3.9,12.3,-4.5
LOC139193,0,4.2,0.6,7.7
EI24 (GeneID 9538),0,9.9,12.4,7.4
GALNT13 (GeneID 114805),0,2.2,0.7,3.7
PLPPR2 (GeneID 64748),0,-12.7,-11.4,-13.9
LOC387706,0,17,13.6,20.3
ICAM3 (GeneID 3385),1,18.7,27.4,10
ITGA5 (GeneID 3678),0,2,-8.9,12.9
LOC283219,0,4.7,7.2,2.2
NPSR1-AS1 (GeneID 404744),0,4.2,12.4,-4
LOC442574,0,-0.4,-0.9,0.2
CRISPLD1 (GeneID 83690),0,-3.9,1.9,-9.8
LOC440644,0,17.6,16.6,18.6
SGTA (GeneID 6449),-1,-10.1,-0.2,-20
